Article PMC6219715

Assays:
[1] = biological target: N-terminal HA-tagged Xrp1^Long (Drosophila melanogaster); experiment: co-IP; S2 cells expressing actin5C-GAL4 alone or with tagged Xrp1^Short or Xrp1^Long; lysate on anti-Flag (M2) or anti-Caz (3F4) Protein G magnetic beads overnight at 4°C; immunoblot
[2] = biological target: N-terminal HA-tagged Xrp1^Short (Drosophila melanogaster); experiment: as above

B1: Cabeza (Caz) (protein, UniProt Q27294 1-399)
chain: MERGGYGGGSGQGYNNFAVPPPNYQQMPNKTGNYNEPPPNYGKQGGGYDSGSGHRGSGGSGNGGGGGGSWNDRGGNSYGNGGASKDSYNKGHGGYSGGGGGGGGGGGGGSGGNDMITQEDTIFVSGMDPSTTEQDIETHFGAIGIIKKDKRTMKPKIWLYKNKETGASKGEATVTYDDTNAAQSAIEWFDGRDFNGNAIKVSLAQRQNNWNKGGGGGGGGGGRGGFGGRRGGGGGGGGGGGGGGRFDRGGGGGGGRYDRGGGGGGGGGGGNVQPRDGDWKCNSCNNTNFAWRNECNRCKTPKGDDEGSSGGGGGGGYGGGGGGGGYDRGNDRGSGGGGYHNRDRGGNSQGGGGGGGGGGGYSRFNDNNGGGRGGRGGGGGNRRDGGPMRNDGGMRSRPY
With B1 the binding [1] was “no binding” and the binding [2] was “no binding”.

No constants are given. Whether binding was seen depends on the method and setting. In cells and extracts the contact can be indirect.
